The list shows a part of the results.
Key:
Experiment in all cases: log2 fold change, soluble protein after heating vs DMSO (PISA); higher = thermal stabilisation; K562 lysate, 10 uM; active = over 0.2 and 3.5 SD of the protein, either way, in both replicates (recomputed)
erlotinib = compound: C#Cc1cccc(Nc2ncnc3cc(OCCOC)c(OCCOC)cc23)c1 [erlotinib]
Outline: (§1)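 Pellets of K562 cells were dounce-homogenised in PBS pH 7.4 with 1 mM MgCl2, and the crude extract was held at 1 mg/mL protein for a 30 min treatment with 10 μM compound. Aliquots were heated for 3 min over 48°C-58°C and pooled before NP-40 was added to 0.5% at 4°C. The supernatant from 21,000xg for 90 min was quantified by TMTpro 16plex LC-MS/MS with channel sums equalised. Values are reported from duplicates as log-two fold change in thermal stability relative to solvent controls.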

Protein sequences, listed by entry. Tags and fused reporters are not part of them. Lines headed by an entry give the natural chain unless they say otherwise; changes in a name come on top.
UniProt Q9Y2A7: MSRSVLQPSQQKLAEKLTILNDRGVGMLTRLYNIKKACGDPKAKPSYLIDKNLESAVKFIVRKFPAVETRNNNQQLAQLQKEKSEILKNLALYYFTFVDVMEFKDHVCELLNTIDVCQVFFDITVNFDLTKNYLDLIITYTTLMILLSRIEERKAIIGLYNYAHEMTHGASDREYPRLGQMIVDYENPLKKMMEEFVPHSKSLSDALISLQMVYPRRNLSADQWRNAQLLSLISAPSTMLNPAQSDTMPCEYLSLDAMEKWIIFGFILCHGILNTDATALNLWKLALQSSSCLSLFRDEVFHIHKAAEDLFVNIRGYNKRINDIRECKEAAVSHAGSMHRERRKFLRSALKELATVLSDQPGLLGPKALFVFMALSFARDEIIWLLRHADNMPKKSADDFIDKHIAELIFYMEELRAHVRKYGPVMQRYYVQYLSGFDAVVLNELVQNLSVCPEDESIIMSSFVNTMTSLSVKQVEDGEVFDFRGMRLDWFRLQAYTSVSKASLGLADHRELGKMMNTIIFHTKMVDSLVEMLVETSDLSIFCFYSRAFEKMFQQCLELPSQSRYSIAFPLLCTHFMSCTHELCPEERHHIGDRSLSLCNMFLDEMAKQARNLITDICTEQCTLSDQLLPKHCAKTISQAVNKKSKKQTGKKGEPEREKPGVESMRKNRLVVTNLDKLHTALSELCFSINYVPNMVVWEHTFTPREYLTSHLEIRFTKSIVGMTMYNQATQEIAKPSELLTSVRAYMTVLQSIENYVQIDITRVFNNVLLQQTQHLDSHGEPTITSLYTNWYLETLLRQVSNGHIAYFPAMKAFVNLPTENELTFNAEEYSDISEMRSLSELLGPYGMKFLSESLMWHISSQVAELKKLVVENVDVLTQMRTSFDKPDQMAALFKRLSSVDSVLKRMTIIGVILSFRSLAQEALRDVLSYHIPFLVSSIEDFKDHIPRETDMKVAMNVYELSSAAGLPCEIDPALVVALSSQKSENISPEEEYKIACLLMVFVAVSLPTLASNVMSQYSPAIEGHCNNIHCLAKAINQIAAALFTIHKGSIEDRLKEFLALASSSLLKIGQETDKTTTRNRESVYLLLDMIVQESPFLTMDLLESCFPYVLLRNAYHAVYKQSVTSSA
UniProt Q15021, whole entry, looked up: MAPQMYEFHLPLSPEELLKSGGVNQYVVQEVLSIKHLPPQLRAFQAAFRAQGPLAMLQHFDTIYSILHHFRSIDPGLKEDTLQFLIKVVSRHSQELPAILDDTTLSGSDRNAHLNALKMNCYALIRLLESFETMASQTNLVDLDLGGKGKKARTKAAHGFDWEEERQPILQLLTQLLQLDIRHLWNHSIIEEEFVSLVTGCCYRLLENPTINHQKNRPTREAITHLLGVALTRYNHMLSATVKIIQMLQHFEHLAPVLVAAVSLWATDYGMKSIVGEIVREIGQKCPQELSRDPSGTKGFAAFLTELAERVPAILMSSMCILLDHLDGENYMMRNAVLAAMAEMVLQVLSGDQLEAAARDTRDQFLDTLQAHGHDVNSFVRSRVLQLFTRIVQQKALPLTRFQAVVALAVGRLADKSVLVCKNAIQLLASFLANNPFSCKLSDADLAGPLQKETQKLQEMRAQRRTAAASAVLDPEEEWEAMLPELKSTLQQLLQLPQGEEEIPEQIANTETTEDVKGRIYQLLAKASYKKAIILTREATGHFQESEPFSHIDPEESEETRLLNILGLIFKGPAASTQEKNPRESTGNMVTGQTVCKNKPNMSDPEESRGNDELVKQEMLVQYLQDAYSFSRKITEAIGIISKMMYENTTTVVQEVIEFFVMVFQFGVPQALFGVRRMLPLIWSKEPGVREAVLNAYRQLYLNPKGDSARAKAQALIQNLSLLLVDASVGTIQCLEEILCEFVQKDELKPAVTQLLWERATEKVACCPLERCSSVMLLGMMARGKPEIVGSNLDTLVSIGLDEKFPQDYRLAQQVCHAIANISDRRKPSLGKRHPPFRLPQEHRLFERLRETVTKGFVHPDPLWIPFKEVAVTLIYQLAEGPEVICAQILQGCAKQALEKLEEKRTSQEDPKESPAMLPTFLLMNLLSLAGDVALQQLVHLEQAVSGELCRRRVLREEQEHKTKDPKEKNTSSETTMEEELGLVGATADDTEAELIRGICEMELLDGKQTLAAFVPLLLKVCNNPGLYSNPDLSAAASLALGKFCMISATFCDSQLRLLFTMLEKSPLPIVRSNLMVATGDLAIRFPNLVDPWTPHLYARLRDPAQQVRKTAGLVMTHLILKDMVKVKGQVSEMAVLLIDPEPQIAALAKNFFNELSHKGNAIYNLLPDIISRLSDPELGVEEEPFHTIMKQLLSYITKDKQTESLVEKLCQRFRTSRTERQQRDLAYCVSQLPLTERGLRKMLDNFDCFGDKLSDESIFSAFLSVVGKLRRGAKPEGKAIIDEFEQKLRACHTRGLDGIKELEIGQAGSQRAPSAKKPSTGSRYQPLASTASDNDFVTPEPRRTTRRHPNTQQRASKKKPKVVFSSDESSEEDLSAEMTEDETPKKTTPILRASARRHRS
UniProt Q96NT1: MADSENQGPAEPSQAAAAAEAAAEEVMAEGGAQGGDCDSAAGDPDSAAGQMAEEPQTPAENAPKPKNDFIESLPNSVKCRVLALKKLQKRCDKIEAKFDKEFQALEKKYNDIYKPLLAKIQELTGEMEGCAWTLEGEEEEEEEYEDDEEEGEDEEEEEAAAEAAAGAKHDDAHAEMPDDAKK
UniProt P55209: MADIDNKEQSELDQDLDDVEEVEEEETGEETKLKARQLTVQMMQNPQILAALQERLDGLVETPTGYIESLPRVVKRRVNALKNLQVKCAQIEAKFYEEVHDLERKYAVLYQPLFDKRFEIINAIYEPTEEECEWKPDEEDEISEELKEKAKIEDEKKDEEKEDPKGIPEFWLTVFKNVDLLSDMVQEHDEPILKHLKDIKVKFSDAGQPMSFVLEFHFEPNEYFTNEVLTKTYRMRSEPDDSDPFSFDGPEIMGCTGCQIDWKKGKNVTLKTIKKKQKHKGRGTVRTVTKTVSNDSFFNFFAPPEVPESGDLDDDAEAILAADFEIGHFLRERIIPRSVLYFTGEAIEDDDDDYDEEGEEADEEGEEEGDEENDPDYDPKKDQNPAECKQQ
UniProt Q96BF6: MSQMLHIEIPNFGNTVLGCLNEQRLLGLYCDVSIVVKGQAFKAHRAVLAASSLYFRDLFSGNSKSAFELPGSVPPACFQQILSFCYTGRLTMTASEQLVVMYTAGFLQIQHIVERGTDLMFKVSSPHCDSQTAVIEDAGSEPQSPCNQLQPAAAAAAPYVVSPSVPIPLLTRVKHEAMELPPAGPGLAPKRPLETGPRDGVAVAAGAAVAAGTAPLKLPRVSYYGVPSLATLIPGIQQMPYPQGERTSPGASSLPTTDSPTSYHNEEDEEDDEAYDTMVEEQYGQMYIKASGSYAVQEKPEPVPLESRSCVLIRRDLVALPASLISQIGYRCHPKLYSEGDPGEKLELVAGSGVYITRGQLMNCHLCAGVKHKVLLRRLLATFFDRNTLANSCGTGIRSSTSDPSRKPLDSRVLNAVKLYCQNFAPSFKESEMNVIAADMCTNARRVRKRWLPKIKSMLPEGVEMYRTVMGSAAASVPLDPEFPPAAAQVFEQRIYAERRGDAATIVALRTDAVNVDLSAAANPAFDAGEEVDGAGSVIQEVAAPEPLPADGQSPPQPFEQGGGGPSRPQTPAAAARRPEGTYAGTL
UniProt P84157: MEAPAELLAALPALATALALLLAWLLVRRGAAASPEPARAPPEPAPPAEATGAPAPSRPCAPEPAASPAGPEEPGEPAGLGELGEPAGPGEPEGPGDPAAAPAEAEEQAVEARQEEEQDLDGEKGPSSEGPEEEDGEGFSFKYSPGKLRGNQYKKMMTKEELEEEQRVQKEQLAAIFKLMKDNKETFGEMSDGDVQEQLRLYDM
UniProt Q8WUY8: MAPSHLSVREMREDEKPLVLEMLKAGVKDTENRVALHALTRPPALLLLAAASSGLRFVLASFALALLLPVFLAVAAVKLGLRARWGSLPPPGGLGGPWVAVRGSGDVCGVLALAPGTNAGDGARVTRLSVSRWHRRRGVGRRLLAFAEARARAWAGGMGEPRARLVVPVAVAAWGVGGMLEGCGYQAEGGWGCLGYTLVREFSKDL
UniProt Q6NZ67, whole entry, looked up: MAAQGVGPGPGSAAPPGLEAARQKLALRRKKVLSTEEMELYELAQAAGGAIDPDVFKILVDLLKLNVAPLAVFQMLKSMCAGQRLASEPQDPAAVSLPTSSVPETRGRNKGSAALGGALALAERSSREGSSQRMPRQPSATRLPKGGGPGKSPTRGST
UniProt Q86UW6: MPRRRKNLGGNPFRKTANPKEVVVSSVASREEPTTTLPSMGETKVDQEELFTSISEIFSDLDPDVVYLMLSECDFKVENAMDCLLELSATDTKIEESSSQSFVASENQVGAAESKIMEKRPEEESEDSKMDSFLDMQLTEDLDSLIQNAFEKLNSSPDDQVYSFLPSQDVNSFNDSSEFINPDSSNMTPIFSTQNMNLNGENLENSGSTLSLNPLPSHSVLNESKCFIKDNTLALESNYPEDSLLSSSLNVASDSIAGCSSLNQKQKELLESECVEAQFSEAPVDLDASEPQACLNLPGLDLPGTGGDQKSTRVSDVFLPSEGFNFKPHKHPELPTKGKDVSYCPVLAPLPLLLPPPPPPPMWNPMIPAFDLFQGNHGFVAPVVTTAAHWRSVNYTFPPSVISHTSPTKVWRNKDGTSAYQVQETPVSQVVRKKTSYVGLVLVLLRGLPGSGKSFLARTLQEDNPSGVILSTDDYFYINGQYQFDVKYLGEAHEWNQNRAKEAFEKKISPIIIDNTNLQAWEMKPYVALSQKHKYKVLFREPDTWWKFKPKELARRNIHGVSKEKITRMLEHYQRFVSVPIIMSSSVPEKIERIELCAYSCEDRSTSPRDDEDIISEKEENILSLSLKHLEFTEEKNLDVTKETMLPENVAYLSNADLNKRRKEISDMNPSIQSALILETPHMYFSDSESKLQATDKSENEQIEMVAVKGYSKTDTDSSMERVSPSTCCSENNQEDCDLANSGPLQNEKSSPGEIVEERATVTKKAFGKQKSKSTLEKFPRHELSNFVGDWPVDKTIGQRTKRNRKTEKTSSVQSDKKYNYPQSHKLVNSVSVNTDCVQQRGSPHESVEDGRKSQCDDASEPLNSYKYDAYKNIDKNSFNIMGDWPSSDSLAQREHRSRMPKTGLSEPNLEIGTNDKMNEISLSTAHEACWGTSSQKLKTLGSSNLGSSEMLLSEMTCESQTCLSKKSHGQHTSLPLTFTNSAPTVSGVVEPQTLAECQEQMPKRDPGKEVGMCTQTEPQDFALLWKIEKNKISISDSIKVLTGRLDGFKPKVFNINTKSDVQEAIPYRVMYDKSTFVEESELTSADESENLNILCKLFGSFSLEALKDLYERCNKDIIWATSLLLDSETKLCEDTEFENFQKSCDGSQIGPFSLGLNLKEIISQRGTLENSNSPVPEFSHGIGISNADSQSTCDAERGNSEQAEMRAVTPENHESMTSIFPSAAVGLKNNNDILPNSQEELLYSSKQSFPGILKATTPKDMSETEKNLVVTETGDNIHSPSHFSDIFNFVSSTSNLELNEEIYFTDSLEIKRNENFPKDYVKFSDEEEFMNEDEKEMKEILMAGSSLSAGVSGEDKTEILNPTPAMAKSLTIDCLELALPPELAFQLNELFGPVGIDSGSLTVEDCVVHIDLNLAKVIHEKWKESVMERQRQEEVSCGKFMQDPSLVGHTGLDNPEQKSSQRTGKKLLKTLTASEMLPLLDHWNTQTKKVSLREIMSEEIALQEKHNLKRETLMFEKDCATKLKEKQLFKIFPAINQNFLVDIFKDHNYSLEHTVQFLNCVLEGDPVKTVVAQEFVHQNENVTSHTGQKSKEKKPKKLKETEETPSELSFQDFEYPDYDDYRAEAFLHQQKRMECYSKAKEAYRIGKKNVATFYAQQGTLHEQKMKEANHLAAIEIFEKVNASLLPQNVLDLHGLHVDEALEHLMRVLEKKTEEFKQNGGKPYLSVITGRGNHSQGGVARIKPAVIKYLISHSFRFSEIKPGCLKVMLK

[1] = compound: C/C(=N\NC(=O)C1=CC(=CC=C1)S(=O)(=O)N2CCOCC2)/C3=C(C=CC(=C3)Cl)O
Outline: as §1

[2] = compound: C1=CC(=CC=C1C2=NC3=C(N2)C=C(C=C3)C(=O)N)OC4=CC=C(C=C4)Cl
Outline: as §1

[3] = compound: C1=CC2=C(C=CC(=C2)/C=C\3/C(=O)NC(=NCC4=CC=CS4)S3)N=C1
Outline: as §1

[4] = compound: C1=CC2=NC=CN=C2C=C1/C=C/3\C(=O)NC(=O)S3
Outline: as §1

[5] = compound: C1=CC=C(C=C1)C2=NC(=C(N2)C3=CC=NC=C3)C4=CC(=C(C=C4)Cl)O
Outline: as §1

[6] = compound: C1=CC=C2C(=C1)C3=NNC4=CC=CC(=C43)C2=O
Outline: as §1

[7] = compound: C1CCN(C1)C(=O)NC2=CC=CC(=C2)NC3=NC=C(C(=N3)NCCC4=CN=CN4)Br
Outline: as §1

[8] = compound: C1CN(CCC1(CC2=CC=C(C=C2)Cl)N)C3=NC=NC4=C3C=CN4
Outline: as §1

IRAK-1-4 Inhibitor I = compound: C1COCCN1CCN2C3=CC=CC=C3N=C2NC(=O)C4=CC(=CC=C4)[N+](=O)[O-] [IRAK-1-4 Inhibitor I]
Outline: as §1

ibrutinib = compound: C=CC(=O)N1CCC[C@@H](n2nc(-c3ccc(Oc4ccccc4)cc3)c3c(N)ncnc32)C1 [ibrutinib]
Outline: as §1

[9] = compound: CC(=O)c1cnc2ccc(-c3cc(Cl)c(O)c(Cl)c3)nc2c1N[C@H]1CC[C@H](CN(C)C)CC1
Outline: as §1

ralimetinib = compound: CC(C)(C)Cn1c(N)nc2ccc(-c3[nH]c(C(C)(C)C)nc3-c3ccc(F)cc3)nc21 [ralimetinib]
Outline: as §1

[10] = compound: CC(C)(O)CC(=O)NCCn1ccc2ncnc(Nc3ccc(Oc4cccc(C(F)(F)F)c4)c(Cl)c3)c21
Outline: as §1

[11] = compound: CC(C)C1=C2N=C(C=C(N2N=C1)NCC3=CC=CC=C3)NCCCCCCN
Outline: as §1

[12] = compound: CC1=C(C(CC(=O)N1)C2=CC=C(C=C2)C(F)(F)F)C(=O)NC3=C(C=C4C(=C3)C=NN4)F
Outline: as §1

[13] = compound: CC1=C(C2=C(C=C1)C(=O)C3=CC=CC=C3N2CCCN)C
Outline: as §1

[14] = compound: CC1=C(C=C(C=C1)NC(=O)C2=CC(=CC=C2)C(C)(C)C#N)NC3=CC4=C(C=C3)N=CN(C4=O)C
Outline: as §1

[15] = compound: CC1=C(C=C(C=C1)NC(=O)C2=CC(=CC=C2)N(C)C)NC(=O)C3=CC=C(C=C3)O
Outline: as §1

[16] = compound: CC1=CC=C(C=C1)SC2=C3C=C(SC3=CN=C2)C(=O)N
Outline: as §1

Measured: log2 fold change

NCKAP1L (UniProt P55160)
inactive: erlotinib 0.005 | [1] -0.06 | [2] -0.006 | [3] 0.196 | [4] 0.055 | [5] -0.032 | [6] -0.156 | [7] 0.06 | [8] 0.084 | IRAK-1-4 Inhibitor I 0.06 | ibrutinib -0.18 | [9] 0.021 | ralimetinib 0.025 | [10] -0.04 | [11] -0.111 | [12] -0.051 | [13] -0.089 | [14] -0.012 | [15] 0.04 | [16] 0.025

NCKAP1 isoform 2 (UniProt Q9Y2A7)
inactive: erlotinib 0.012 | [1] 0.015 | [2] 0.004 | [3] 0.017 | [4] 0.013 | [5] -0.001 | [6] -0.006 | [7] -0.003 | [8] 0.017 | IRAK-1-4 Inhibitor I 0.002 | ibrutinib 0.007 | [9] -0.008 | ralimetinib 0.001 | [10] -0.007 | [11] -0.016 | [12] 0.007 | [13] 0.006 | [14] 0.008 | [15] 0.005 | [16] 0.023

NCAPD2 (UniProt Q15021)
inactive: erlotinib 0.011 | [1] 0.011 | [2] -0.005 | [3] 0.032 | [4] -0.009 | [5] -0.016 | [6] -0.025 | [7] -0.007 | [8] -0.005 | IRAK-1-4 Inhibitor I -0.001 | ibrutinib -0.019 | [9] -0.019 | ralimetinib 0.03 | [10] -0.012 | [11] -0.031 | [12] 0.022 | [13] -0.003 | [14] 0.016 | [15] 0.036 | [16] -0.005

NAP1L5 (UniProt Q96NT1)
inactive: erlotinib -0.003 | [1] -0.023 | [2] 0.017 | [3] -0.014 | [4] -0.014 | [5] 0.084 | [6] -0.116 | [7] -0.057 | [8] 0 | IRAK-1-4 Inhibitor I -0.059 | ibrutinib -0.056 | [9] 0.018 | ralimetinib -0.034 | [10] 0.034 | [11] -0.037 | [12] -0.036 | [13] -0.045 | [14] -0.13 | [15] -0.036 | [16] -0.009

NAP1L1 (UniProt P55209)
inactive: erlotinib -0.013 | [1] -0.024 | [2] 0.02 | [3] 0.007 | [4] -0.04 | [5] 0.002 | [6] 0.007 | [7] -0.003 | [8] -0.008 | IRAK-1-4 Inhibitor I -0.005 | ibrutinib 0.048 | [9] 0.022 | ralimetinib -0.019 | [10] -0.005 | [11] -0.007 | [12] -0.041 | [13] -0.01 | [14] 0.018 | [15] 0 | [16] -0.046

NACC2 (UniProt Q96BF6)
inactive: erlotinib -0.157 | [1] -0.188 | [2] 0 | [3] 0.107 | [5] 0.162 | [6] 0.087 | [7] -0.085 | [8] -0.016 | IRAK-1-4 Inhibitor I 0.143 | ralimetinib -0.067 | [10] -0.071 | [11] -0.119 | [12] 0.096 | [13] 0 | [14] -0.014 | [15] -0.365

MYH14 isoform 2 (UniProt Q7Z406)
inactive: erlotinib -0.005 | [1] 0.018 | [2] -0.003 | [3] -0.002 | [4] -0.03 | [5] -0.015 | [6] -0.043 | [7] -0.004 | [8] 0.008 | IRAK-1-4 Inhibitor I -0.009 | ibrutinib 0.017 | [9] -0.03 | ralimetinib 0.016 | [10] -0.029 | [11] -0.011 | [12] -0.008 | [13] -0.047 | [14] 0.021 | [15] 0.028 | [16] -0.021

MXRA7 (UniProt P84157)
inactive: erlotinib -0.001 | [1] 0.062 | [2] 0.118 | [3] 0.17 | [5] -0.062 | [6] -0.135 | [7] 0.02 | [8] 0 | IRAK-1-4 Inhibitor I -0.043 | [9] -0.234 | ralimetinib 0.108 | [10] 0.027 | [11] -0.057 | [12] -0.074 | [13] 0.024 | [14] 0.021 | [15] 0.045 | [16] -0.023

NAT14 (UniProt Q8WUY8)
inactive: erlotinib 0 | [1] 0.046 | [2] -0.05 | [3] 0.025 | [5] 0.212 | [6] -0.074 | [7] -0.115 | [8] 0.049 | IRAK-1-4 Inhibitor I -0.258 | ralimetinib 0.062 | [10] 0.207 | [11] 0.07 | [13] -0.172 | [14] 0.031 | [15] 0.149

NCALD (UniProt P61601)
inactive: erlotinib -0.066 | [1] 0.005 | [2] -0.032 | [3] -0.028 | [4] -0.002 | [5] 0.029 | [6] 0.031 | [7] 0.01 | [8] 0.07 | IRAK-1-4 Inhibitor I 0.015 | ibrutinib 0.041 | [9] 0.012 | ralimetinib -0.071 | [10] 0.044 | [11] -0.012 | [12] 0.009 | [13] -0.006 | [14] -0.046 | [15] -0.074 | [16] -0.006

MZT2B (UniProt Q6NZ67)
inactive: erlotinib -0.022 | [1] -0.409 | [2] 0.029 | [3] -0.008 | [4] -0.035 | [5] 0.044 | [6] 0.017 | [7] -0.007 | [8] 0.104 | IRAK-1-4 Inhibitor I -0.04 | ibrutinib -0.105 | [9] 0.101 | ralimetinib -0.009 | [10] -0.026 | [11] -0.011 | [12] 0.023 | [14] -0.003 | [15] 0.032 | [16] -0.089

MYO10 (UniProt Q9HD67)
inactive: erlotinib -0.044 | [1] -0.13 | [2] 0.19 | [3] 0.017 | [4] -0.062 | [5] 0.014 | [6] -0.16 | IRAK-1-4 Inhibitor I 0.102 | ibrutinib -0.059 | ralimetinib -0.136 | [10] -0.385 | [11] 0.035 | [12] -0.078 | [14] -0.001 | [15] 0.042

2 successive records from above, quoted:
NAT14 (UniProt Q8WUY8)
inactive: erlotinib 0 | [1] 0.046 | [2] -0.05 | [3] 0.025 | [5] 0.212 | [6] -0.074 | [7] -0.115 | [8] 0.049 | IRAK-1-4 Inhibitor I -0.258 | ralimetinib 0.062 | [10] 0.207 | [11] 0.07 | [13] -0.172 | [14] 0.031 | [15] 0.149

NCALD (UniProt P61601)
inactive: erlotinib -0.066 | [1] 0.005 | [2] -0.032 | [3] -0.028 | [4] -0.002 | [5] 0.029 | [6] 0.031 | [7] 0.01 | [8] 0.07 | IRAK-1-4 Inhibitor I 0.015 | ibrutinib 0.041 | [9] 0.012 | ralimetinib -0.071 | [10] 0.044 | [11] -0.012 | [12] 0.009 | [13] -0.006 | [14] -0.046 | [15] -0.074 | [16] -0.006

Going on with the list:

N4BP2 (UniProt Q86UW6)
inactive: erlotinib 0.04 | [1] -0.029 | [2] -0.09 | [3] 0.069 | [4] -0.015 | [5] 0.001 | [6] 0.106 | [7] -0.021 | [8] -0.068 | IRAK-1-4 Inhibitor I -0.022 | ibrutinib 0.094 | [9] -0.041 | ralimetinib 0.038 | [10] -0.053 | [11] 0.047 | [12] 0.03 | [13] -0.011 | [14] -0.005 | [15] -0.034 | [16] -0.027

— the supplement of paper PMC10849652
